We go through one substance from paper PMC5523156.

Chains of the proteins cited; added tags and fusions are not shown. Lines headed by an entry give the natural chain unless they say otherwise; changes in a name come on top. Residues count along the entry.
UniProt P14780: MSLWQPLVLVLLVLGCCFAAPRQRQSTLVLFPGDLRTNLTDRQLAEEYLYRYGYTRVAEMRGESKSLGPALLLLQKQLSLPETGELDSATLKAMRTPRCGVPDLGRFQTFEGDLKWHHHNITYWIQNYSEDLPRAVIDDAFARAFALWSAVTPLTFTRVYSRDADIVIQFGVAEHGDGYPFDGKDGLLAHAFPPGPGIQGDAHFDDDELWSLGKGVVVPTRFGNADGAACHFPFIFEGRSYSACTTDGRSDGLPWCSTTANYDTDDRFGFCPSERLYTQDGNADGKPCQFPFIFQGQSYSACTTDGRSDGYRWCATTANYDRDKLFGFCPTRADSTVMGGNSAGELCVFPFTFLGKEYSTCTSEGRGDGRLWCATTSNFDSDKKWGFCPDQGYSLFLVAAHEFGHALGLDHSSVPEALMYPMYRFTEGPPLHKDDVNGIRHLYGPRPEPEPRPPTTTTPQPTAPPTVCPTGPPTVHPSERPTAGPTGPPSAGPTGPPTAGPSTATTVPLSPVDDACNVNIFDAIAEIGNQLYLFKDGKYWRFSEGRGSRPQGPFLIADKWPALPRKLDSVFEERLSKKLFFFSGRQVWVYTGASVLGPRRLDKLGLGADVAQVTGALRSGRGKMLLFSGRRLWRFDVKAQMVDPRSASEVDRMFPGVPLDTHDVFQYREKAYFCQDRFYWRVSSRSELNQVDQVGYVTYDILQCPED
UniProt P01033, residues 24-207: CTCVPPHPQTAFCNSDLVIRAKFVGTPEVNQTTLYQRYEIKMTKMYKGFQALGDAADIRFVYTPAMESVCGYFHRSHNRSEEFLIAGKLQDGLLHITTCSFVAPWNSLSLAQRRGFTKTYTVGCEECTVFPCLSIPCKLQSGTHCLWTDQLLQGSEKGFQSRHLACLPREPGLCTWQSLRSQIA

These are yes or no findings as the source states them, for the method shown. Binding calls can cover weak binding; strength is not graded here.

This test has as its target Recombinant MMP-9 (rMMP-9) human (human) (UniProt P14780). The test can be described thus: AlphaScreen or HTRF; AlphaLISA no-wash sandwich immunoassay: MMP-9 captured by anti-MMP-9 antibody on acceptor beads, TIMP-1 by biotinylated anti-TIMP-1 antibody on streptavidin donor beads; cross-titration of recombinant proteins at 0, 30, 100, 300 and 1,000 ng/mL each, pre-incubated 60 min at room temperature; assay buffer HEPES, NaCl, BSA, Tween-20, pH 7.4; also tested with H2O2; both purified.

Consider “Recombinant TIMP-1 (rTIMP-1) human (from UniProt P01033 24-207)”, for which the binding entry is given as “binds”.
